From PMC11513148

The chains behind the UniProt entries cited, without tags or fusion partners. Where a name states a change or a piece, a line headed by the entry shows the natural chain unless it says otherwise.
UniProt Q06144: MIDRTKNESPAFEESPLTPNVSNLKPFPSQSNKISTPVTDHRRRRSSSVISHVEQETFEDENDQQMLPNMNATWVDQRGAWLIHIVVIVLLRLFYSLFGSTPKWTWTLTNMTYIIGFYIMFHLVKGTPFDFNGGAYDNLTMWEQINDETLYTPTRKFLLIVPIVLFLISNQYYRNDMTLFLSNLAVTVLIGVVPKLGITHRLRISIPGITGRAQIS

Target: FLAG-Orm2^KR (non-ubiquitinatable Orm2 mutant) (S. cerevisiae) (UniProt Q06144)
Experiment: co-IP; non-denaturing immunoprecipitation of the substrate (FLAG-Hmx1, FLAG-Orm2^KR on anti-FLAG M2 beads; Yif1-HA on anti-HA beads) from yeast lysate solubilised with glyco-diosgenin, 4 °C, washes up to 300 mM NaCl; Western blot; WT cells, also ubx3Δ, dsc3Δ and tul1Δ cells

B1: Dsc2 (rhomboid pseudo-protease subunit of the Dsc complex) (protein, UniProt Q08232 1-322)
chain: MSMEPPVGLTAMPVTKLAMITTLVVPLVASIASYKHIFLLQYDPFLQTYHQYYRLLIFQFCAINESDTVILALIWYLFRHLERLLGSHKYLTLIVLSWAYTTLGIWGLNLIWNAFIGQYKWLQWNNFSTGSLPIVLSLVHFYKEYTPQIYEWNIRLLGPRGGASSHNDNKREDKSAVEWKINDQFLLNGLILLLILNQGFAGILCGFISWMCGIFIDKGLLPGLDHWRIPFVSYFISQGPPTRANVAIAANAATNTAAARATVEAATAATGNGNTGNSGPTSLPLRGSSTTPTNTSSAGDDEPGADEPARPLGVQFLDTFRR
binding: binds

No constants are given. Whether binding was seen depends on the method and setting. Binding seen in cells or lysates may run through a third protein. A result given as binding can be weak or reduced; the word gives no strength.
